# Test results: the supplement of paper PMC3334620
# Over roughly 33,000 sequences, “E-score (-0.5 to 0.5)” has its median near -0.0034; the highest 2% begin near 0.25. Some of the results follow.
# Biological target: T1, Yap3 (UniProt P38749)
# T1 sequence: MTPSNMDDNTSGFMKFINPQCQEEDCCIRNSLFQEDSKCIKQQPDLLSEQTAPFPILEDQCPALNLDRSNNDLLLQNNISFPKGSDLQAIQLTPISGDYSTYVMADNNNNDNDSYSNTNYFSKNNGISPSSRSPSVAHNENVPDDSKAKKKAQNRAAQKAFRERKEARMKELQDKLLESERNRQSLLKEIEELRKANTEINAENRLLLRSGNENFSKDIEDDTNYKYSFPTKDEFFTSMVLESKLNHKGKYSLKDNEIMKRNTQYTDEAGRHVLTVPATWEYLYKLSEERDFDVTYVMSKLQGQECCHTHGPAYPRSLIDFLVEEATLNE
# Assay: PBM E-score (8-mer binding enrichment) (E-score (-0.5 to 0.5)); higher = stronger / more preferred TF binding
# Details: protein concentration: 100 nM; construct: GST-full length
# Protocol: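 Universal 'all 10-mer' protein binding microarrays (Agilent AMADID 015681) probed with GST-tagged S. cerevisiae TFs (full-length or DBD) made by in vitro transcription/translation (PURExpress), about 100-200 nM. Bound TF was detected with fluorescent anti-GST. Each ungapped 8-mer (which stands for itself and its reverse complement) is scored by the PBM enrichment score (E-score), a modified Wilcoxon-Mann-Whitney statistic from -0.5 to +0.5, computed with the Universal PBM Analysis Suite. Scale: above 0.35 generally sequence-specific binding.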
row,Sequence,PBM E-score
1,ACCCACCC,-0.0138
2,AGCTAGCC,-0.0749
3,CCTCAACC,-0.136
4,AAGTGGGA,0.217
5,CTCTCGGC,-0.0816
6,GCCCGAAC,-0.0372
7,ACTCCGTC,0.0132
8,AGTCCCTC,-0.316
9,GGAAGGAA,-0.0948
10,CACTTCAG,-0.0216
11,ACCGTACT,0.0135
12,AATCCTCT,-0.127
13,ACACTTAT,0.087
14,CTGACCCC,-0.391
15,ACCGTTGA,-0.076
16,AACACAGC,0.204
17,CGGCTTGC,-0.0135
18,ATCTATAC,0.0727
19,CCACTCCC,-0.266
20,CTCAACAC,0.0584
21,CAGGCGGC,-0.314
22,CATATCGA,0.0343
23,GGTTGGGA,-0.125
24,AGGAATAG,0.0701
25,ACTCACAG,0.037

# A different layout for some results above:
row | Sequence | PBM E-score
2 | AGCTAGCC | -0.0749
18 | ATCTATAC | 0.0727
23 | GGTTGGGA | -0.125

# Next part

row,Sequence,PBM E-score
1,CTCCGATC,-0.0909
2,CTCGGCCC,-0.249
3,TGCCTGAA,-0.117
4,AATCTCCG,0.0189
5,GCTGGAAA,0.033
6,GAGGCATA,-0.00096
7,CATTTCAA,0.265
8,AGCATTAC,0.0534
9,AGTGCTTC,-0.0103
10,GGGATGAA,-0.103
11,AAAACTTC,0.00687
12,GAAGGTGA,0.024
13,ACTACTGA,-0.143
14,ATCGCCTC,0.139
15,ATAAACCA,0.0561
16,AAAGTATC,0.17
17,ACTGCCGG,0.0264
18,ATGGACGC,0.0748
19,AGACGTAG,-0.0624
20,AGTAACAT,0.193
21,AGCATGAT,0.0213
22,GGGATCCC,-0.129
23,ATGCCAGC,-0.2
24,CAGTCTCA,-0.148
25,AGGGCACA,0.0492

row,Sequence,PBM E-score
1,GATCCTCA,0.0481
2,GAATAGGC,-0.0903
3,CGGCCTCC,-0.187
4,AAACGATC,0.0617
5,CGCGAACG,0.0419
6,AGCTGACC,-0.129
7,AAGGCCGA,-0.0574
8,ACCTACGC,-0.00632
9,TCATACCA,0.131
10,ACAGGATA,-0.0182
11,AACATACC,0.0597
12,TCTCCGAA,-0.0745
13,AGATTGAA,0.0959
14,CCCGCCCG,-0.0448
15,ACCTCCCC,-0.169
16,ACGCTCCA,-0.0882
17,ATACCTCC,-0.0495
18,GCGGTAAA,0.0997
19,TGTGGCAA,-0.00899
20,GACTCCAA,-0.25
21,CAAGACTA,-0.116
22,CATGGGAG,-0.0128
23,GATATCAA,0.174
24,GAACTGCA,0.0204
25,ATCTCAAA,0.183

row,Sequence,PBM E-score
1,GCGACAAA,0.0655
2,ACACTGAA,0.177
3,CAGACTTA,-0.0989
4,CGCGGTAG,0.0793
5,GCTACAGA,-0.0956
6,CCTGACCA,0.133
7,GCTCGTTA,0.0115
8,ATAACAAC,0.161
9,ATATTAAC,0.274
10,CTCGGACA,0.051
11,GCATACCC,0.073
12,CTCTGCCA,-0.222
13,CAAACGTC,-0.127
14,CCTAACTC,-0.142
15,GCAATCGC,-0.0868
16,ATCTGATA,-0.114
17,ATTGTCTA,0.225
18,CCACAATA,-0.0221
19,CTAATTGA,0.0727
20,CGTAGGCA,-0.177
21,AATGGCTC,0.0559
22,CCAACATC,-0.011
23,CTTGTACA,0.0197
24,ATTCACCA,0.0582
25,CTACACCA,-0.0324

# Two records drawn at random from the list so far:
row,Sequence,PBM E-score
16,ATCTGATA,-0.114
4,CGCGGTAG,0.0793

# Carrying on:

row,Sequence,PBM E-score
1,AAACGAGC,0.047
2,ACACGTCT,-0.05
3,TCTTGGCA,0.13
4,AATCTAAG,0.0332
5,AGTTTAAT,0.153
6,ACATGGTC,0.0283
7,CCTGAGCC,-0.211
8,AAACCGCT,-0.164
9,GAAGAGTA,0.0512
10,GACGCCAA,-0.0394
11,AACGACAG,-0.0462
12,CGGGAACA,0.165
13,CCAAGCTA,-0.0922
14,AAATAGAG,0.0258
15,AAGGCTAC,-0.101
16,ACCAAGCC,-0.0646
17,AGTTGTGG,0.271
18,CTCGGCAC,-0.0386
19,ACGTGTGG,-0.0402
20,CGTTCTGC,0.0693
21,GGGCAAAC,0.0517
22,TAGCCGGA,0.0491
23,CCCAGAAA,0.0289
24,GGCTCGCA,-0.127
25,ACCCTGCC,-0.225

# No new results follow: entries from further up.
row,Sequence,PBM E-score
3,TCTTGGCA,0.13
4,AATCTAAG,0.0332

# More entries:

row,Sequence,PBM E-score
1,ATGTATCC,0.102
2,GATGCGAA,0.057
3,ATTGGAAG,0.0305
4,GCACAATA,0.102
5,ACCTAAGA,-0.059
6,CCGATTTA,0.107
7,ATACCATG,0.0804
8,ACAAATCT,0.107
9,AGGAATAA,0.156
10,CAAGACTG,-0.0723
11,AGGGGTGG,-0.117
12,GATCAAGC,0.0653
13,ACAAGACG,-0.114
14,CGCCTGGC,-0.253
15,CATCCGTA,0.186
16,CCGCCAAG,-0.273
17,GAGCACCA,-0.112
18,CACACGTG,0.0982
19,AGTAAGGG,0.0553
20,ATCTAGTG,-0.0728
21,GGCAATAA,0.114
22,CTCCTGCC,-0.159
23,AGAAACTG,0.00674
24,CGACTTAA,-0.0743
25,CGAACTGC,0.0173

row,Sequence,PBM E-score
1,TGTCGAAA,-0.0162
2,CTGGTGAC,-0.0814
3,GGAAAGCA,0.018
4,CAATAGTG,0.0307
5,GGTGGAGA,-0.223
6,CAGATTGA,-0.1
7,CTATGGCC,-0.161
8,CCTGCCGA,-0.131
9,GTACACTA,0.101
10,TCCATAGA,-0.0915
11,CCAACTCG,-0.0369
12,ACGGGTTA,-0.236
13,ATGCCAAG,-0.00431
14,CCCGAGGC,-0.274
15,TGGATAAA,0.0462
16,ACGTATCC,-0.166
17,ACACACCC,0.05
18,CGTTGTCC,0.108
19,AGCACGGA,-0.0134
20,CCCTGGAA,-0.221
21,TCACAAAA,0.206
22,CTTGTGTC,0.00956
23,CCCGGGAC,-0.28
24,AGAAGACC,-0.0956
25,GATTAAAA,0.192

row,Sequence,PBM E-score
1,CACATGGC,-0.162
2,CATACCAC,-0.0411
3,CCGCGTGC,-0.0737
4,CGTAACTC,-0.0505
5,AGGTTCAT,-0.0863
6,AGCTATCC,-0.233
7,TAGTGTGA,-0.0146
8,AGTCGCGA,0.272
9,AAGTTACA,0.199
10,ACAAATGG,0.0263
11,CTGTACTA,0.191
12,CTACACGC,-0.195
13,CTTTCTAA,0.149
14,ATACCCCA,0.0688
15,ACTTACTA,0.169
16,CGACTCAG,-0.0644
17,ATAATCTG,0.0994
18,AGGATCAA,0.138
19,ACCCCACC,0.00566
20,CAAGATCA,0.0239
21,AAATCCCT,-0.0153
22,AATACGAC,-0.0154
23,CGAGAGAG,-0.0823
24,CGAACGAG,-0.113
25,GGCGGCCC,-0.421

row,Sequence,PBM E-score
1,AACATTCA,-0.00192
2,GTCGTTGA,-0.0267
3,CCATTAGG,-0.292
4,GGCCATAA,0.0838
5,AATACATC,0.119
6,CCGGATAC,-0.0597
7,AGCGGCTC,-0.0449
8,AATCTGGA,-0.133
9,CCTTAAAC,-0.0575
10,CGGACCGA,0.00351
11,CATTATTA,0.334
12,ACCTCACA,-0.0389
13,CACCGCGG,0.0356
14,ACCTCGAG,0.217
15,CAGCCCCA,-0.213
16,CCTATGAA,0.0291
17,GGATACAA,0.106
18,GCAAGGTA,0.0372
19,ATTGTGAA,0.0946
